Results deposited as PubChem BioAssay AID1159584 (Peter MacCallum Cancer Centre, 2016).
Screen: 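Genes that CDH1-null MCF10A cells selectively depend on to survive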 (primary screen). Cell system: human MCF10A breast epithelial cells, parental and CDH1-null. Reagents: siRNA against human genes. Read-out: 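Cell viability by CellTiter-Glo ATP luminescence, each line scaled to the mean of mock wells across plates, then CDH1-null over parental ratio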. Reading the numbers: CDH1-null / parental viability ratio: higher = CDH1-null cells survive relatively better than parental; CDH1-null viability vs mock: higher = more viable CDH1-null cells; parental viability vs mock: higher = more viable parental cells.
The whole screen tested about 18,000 reagents; below is a random part of them. Not stated in the record: the amount of reagent, the time to read-out.

CDH1-null / parental viability ratio	CDH1-null viability vs mock (fraction of mock)	parental viability vs mock (fraction of mock)	Target gene
1	0.78	0.78	HMCN2 (hemicentin 2)
1.22	0.6	0.49	OR3A2 (olfactory receptor family 3 subfamily A member 2)
1.4	0.84	0.6	PLEKHN1 (pleckstrin homology domain containing N1)
0.87	0.61	0.7	BBS5 (Bardet-Biedl syndrome 5)
1.03	0.8	0.78	PLCE1 (phospholipase C epsilon 1)
1.03	0.91	0.88	SLC18B1
0.97	0.97	1	BARD1 (BRCA1 associated RING domain 1)
1	0.2	0.2	RPS2 (ribosomal protein S2)
0.81	0.62	0.77	NXF5 (nuclear RNA export factor 5)
1.33	1.13	0.85	LSM10 (LSM10, U7 small nuclear RNA associated)
1.2	0.53	0.44	OR3A3 (olfactory receptor family 3 subfamily A member 3)
0.71	0.61	0.86	CRTC3 (CREB regulated transcription coactivator 3)
1.16	1.14	0.98	TLX1 (T cell leukemia homeobox 1)
1.07	1.14	1.07	TNIP2 (TNFAIP3 interacting protein 2)
0.91	0.86	0.94	KCTD8 (potassium channel tetramerization domain containing 8)
1.03	1	0.97	RNF144A (ring finger protein 144A)
1.07	0.88	0.82	ASB16 (ankyrin repeat and SOCS box containing 16)
0.85	0.61	0.72	SRP68 (signal recognition particle 68)
1.08	0.99	0.92	CLUH (CLUH binding protein of NUMT mRNA)
1.01	0.77	0.76	CPED1 (cadherin like and PC-esterase domain containing 1)
1.03	0.8	0.78	UST (uronyl 2-sulfotransferase)
0.96	0.78	0.81	CCDC183 (coiled-coil domain containing 183)
1.02	0.94	0.92	MLN (motilin)
0.79	0.66	0.84	C1orf216 (chromosome 1 open reading frame 216)
0.59	0.58	0.99	NSUN3 (NOP2/Sun RNA methyltransferase 3)
1.09	1.05	0.96	NOAZFP (nucleolar atypical zinc finger)
1.27	0.76	0.6	RASGRF2 (Ras protein specific guanine nucleotide releasing factor 2)
0.85	0.64	0.75	DLG4 (discs large MAGUK scaffold protein 4)
1.18	1.04	0.88	PARN (poly(A)-specific ribonuclease)
0.95	0.78	0.82	PBLD (phenazine biosynthesis like protein domain containing)
1.32	1.06	0.8	ADSS1 (adenylosuccinate synthase 1)
1.24	1.12	0.9	DAZL (deleted in azoospermia like)
0.77	0.3	0.39	PLEKHG3 (pleckstrin homology and RhoGEF domain containing G3)
0.86	0.48	0.56	FBXW4 (F-box and WD repeat domain containing 4)
0.97	1.01	1.04	SDHB (succinate dehydrogenase complex iron sulfur subunit B)
1.28	0.64	0.5	ARHGEF18 (Rho/Rac guanine nucleotide exchange factor 18)
0.84	0.79	0.94	HBG1 (hemoglobin subunit gamma 1)
0.95	0.57	0.6	TMEM207 (transmembrane protein 207)
1.25	0.5	0.4	DICER1 (dicer 1, ribonuclease III)
1.02	1.1	1.08	IMPDH2 (inosine monophosphate dehydrogenase 2)
0.97	0.76	0.78	FBXO21 (F-box protein 21)
1.05	0.41	0.39	CAMTA1 (calmodulin binding transcription activator 1)
0.71	0.62	0.87	XYLT1 (xylosyltransferase 1)
0.83	0.75	0.9	SLAMF7 (SLAM family member 7)
1.11	0.8	0.72	ATP5F1B (ATP synthase F1 subunit beta)
1.11	1.25	1.13	GTF2B (general transcription factor IIB)
